The values below come from paper PMC2647735.

Amino acid sequences for entries named in this document (tags omitted).
UniProt Q2HR64: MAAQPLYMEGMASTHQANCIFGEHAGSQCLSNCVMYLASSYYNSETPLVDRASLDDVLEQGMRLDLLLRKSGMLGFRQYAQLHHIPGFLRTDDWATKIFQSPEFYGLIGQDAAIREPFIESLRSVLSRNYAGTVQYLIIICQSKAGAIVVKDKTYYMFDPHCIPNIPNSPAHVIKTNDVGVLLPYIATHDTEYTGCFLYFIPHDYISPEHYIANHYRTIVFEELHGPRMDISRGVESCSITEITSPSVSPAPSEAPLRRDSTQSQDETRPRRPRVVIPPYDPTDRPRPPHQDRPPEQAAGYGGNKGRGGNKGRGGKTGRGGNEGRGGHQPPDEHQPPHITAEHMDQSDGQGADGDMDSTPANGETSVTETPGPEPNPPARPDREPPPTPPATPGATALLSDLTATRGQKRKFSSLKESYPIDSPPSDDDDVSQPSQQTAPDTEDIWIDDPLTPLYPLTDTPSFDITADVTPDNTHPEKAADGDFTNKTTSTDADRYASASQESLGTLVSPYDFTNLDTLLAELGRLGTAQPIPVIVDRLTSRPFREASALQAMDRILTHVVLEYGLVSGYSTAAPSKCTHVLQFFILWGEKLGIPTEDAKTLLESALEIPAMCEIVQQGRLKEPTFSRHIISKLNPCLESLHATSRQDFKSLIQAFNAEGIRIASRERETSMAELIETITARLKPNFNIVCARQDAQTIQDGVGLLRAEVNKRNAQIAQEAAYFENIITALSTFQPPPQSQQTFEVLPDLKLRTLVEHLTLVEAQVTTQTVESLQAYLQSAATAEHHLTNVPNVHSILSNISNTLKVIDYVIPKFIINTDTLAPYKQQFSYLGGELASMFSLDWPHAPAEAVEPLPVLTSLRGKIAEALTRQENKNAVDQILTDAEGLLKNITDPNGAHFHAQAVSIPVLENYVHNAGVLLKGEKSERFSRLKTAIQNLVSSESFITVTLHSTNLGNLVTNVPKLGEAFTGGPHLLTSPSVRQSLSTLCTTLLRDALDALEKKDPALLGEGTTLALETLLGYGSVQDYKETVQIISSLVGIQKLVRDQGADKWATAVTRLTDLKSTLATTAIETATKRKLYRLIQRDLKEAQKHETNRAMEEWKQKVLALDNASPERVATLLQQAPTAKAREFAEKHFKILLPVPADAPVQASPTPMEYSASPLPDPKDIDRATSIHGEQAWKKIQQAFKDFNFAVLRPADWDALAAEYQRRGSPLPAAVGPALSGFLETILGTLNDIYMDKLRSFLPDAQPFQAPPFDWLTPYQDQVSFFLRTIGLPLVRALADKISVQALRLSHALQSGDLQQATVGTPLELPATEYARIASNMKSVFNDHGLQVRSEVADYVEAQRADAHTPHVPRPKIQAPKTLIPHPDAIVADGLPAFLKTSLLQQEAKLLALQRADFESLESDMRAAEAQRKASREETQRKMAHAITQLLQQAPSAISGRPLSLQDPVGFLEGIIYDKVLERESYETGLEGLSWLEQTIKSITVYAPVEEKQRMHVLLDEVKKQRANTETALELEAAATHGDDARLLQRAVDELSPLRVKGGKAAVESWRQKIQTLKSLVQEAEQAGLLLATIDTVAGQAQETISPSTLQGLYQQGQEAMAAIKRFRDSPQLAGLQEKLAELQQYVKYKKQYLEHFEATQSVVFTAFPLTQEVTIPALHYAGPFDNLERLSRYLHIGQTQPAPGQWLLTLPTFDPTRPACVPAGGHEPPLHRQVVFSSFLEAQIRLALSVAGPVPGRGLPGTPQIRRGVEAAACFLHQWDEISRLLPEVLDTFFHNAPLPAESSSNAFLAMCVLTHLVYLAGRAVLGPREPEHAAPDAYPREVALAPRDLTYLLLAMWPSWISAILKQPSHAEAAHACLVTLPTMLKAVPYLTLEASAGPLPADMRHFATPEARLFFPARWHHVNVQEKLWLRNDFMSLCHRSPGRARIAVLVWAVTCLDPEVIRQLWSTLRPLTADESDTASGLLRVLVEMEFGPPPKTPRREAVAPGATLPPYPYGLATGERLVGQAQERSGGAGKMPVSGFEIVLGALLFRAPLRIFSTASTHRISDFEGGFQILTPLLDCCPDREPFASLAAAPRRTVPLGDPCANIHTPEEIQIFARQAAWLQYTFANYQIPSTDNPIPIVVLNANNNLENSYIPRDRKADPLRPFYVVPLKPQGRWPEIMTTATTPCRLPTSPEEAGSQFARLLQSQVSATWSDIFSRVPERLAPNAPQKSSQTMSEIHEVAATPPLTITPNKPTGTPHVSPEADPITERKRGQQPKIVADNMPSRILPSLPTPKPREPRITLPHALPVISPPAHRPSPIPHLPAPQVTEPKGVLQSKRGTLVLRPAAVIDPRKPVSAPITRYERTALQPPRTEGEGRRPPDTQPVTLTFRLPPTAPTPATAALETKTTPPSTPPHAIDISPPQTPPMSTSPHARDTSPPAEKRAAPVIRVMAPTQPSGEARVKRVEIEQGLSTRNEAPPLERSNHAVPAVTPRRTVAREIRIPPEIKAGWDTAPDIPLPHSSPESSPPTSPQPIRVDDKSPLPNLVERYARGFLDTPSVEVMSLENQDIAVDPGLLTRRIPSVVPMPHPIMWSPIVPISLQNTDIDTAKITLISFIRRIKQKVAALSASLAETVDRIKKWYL
UniProt F5HDE4: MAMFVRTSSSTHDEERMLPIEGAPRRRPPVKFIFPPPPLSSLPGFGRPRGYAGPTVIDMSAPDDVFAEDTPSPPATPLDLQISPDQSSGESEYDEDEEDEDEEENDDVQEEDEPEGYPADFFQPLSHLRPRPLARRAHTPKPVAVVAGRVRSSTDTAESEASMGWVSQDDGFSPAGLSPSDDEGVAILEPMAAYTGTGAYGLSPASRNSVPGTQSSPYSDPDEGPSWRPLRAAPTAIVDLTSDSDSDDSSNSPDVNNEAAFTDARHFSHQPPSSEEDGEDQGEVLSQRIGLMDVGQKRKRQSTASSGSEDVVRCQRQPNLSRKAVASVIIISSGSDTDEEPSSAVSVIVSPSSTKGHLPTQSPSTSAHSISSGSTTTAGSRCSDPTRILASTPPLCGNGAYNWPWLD

No constants are given. Whether binding was seen depends on the method and setting. For some of these results: In cells and extracts the contact can be indirect. Some results given as binding are weak or reduced against the parent protein; the word gives no strength.

The target in experiment [1] is T1, KSHV ORF65 (capsid protein) (Kaposi's sarcoma-associated herpesvirus (KSHV, HHV-8)) (UniProt Q2HR63).
T1 sequence: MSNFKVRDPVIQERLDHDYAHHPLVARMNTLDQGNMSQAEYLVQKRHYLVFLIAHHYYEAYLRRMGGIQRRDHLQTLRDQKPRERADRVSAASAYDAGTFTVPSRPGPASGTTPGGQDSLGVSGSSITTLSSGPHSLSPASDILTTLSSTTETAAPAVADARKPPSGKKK
Kind of experiment: co-IP; lysates of TPA-induced 293T carrying BAC36 or BAC-stop45; IP with anti-ORF65, Western blot for capsid and tegument proteins. On the technique in general: Immunoblotting shows a protein as a band on a membrane.

The target of experiment [2] is T1, KSHV ORF65 (capsid protein) (Kaposi's sarcoma-associated herpesvirus (KSHV, HHV-8)). Kind of experiment: co-IP; nocodazole-treated and TPA-induced BCBL-1 cells; IP with anti-ORF65, Western blot for capsid and tegument proteins; data not shown.
In experiment [3] the target is KSHV ORF64 (yeast two-hybrid, unpublished data) (Kaposi's sarcoma-associated herpesvirus (KSHV, HHV-8)) (UniProt Q2HR64). Kind of experiment: two-hybrid; further mapping of ORF45 against other virion proteins by Y2H; unpublished data.

Regarding “KSHV ORF64 (tegument protein) (from UniProt Q2HR64 1-2635)”, the binding entry in experiment [1] and in experiment [2] was “binds” each time.
“KSHV ORF45 (expressed from the virus in infected cells) (from UniProt F5HDE4 1-407)”: in experiment [2], the binding result is recorded as “binds”.
For the substance “KSHV ORF45 (yeast two-hybrid mapping against ORF64 and ORF63, unpublished data) (from UniProt F5HDE4 1-407)”, the binding result in experiment [3] is “binds”.
